Experimental data taken from patent US20230303695A1.
Substitutions are numbered along the chain they refer to. Results are given in words; binding and its absence hold for the method and conditions named. Some entries that bind do so weakly or less than the wild type. Each block holds one binder with its values, some of them ahead of it.

What was measured:
[1] = target: IGSF8 protein without D1 domain (human) (UniProt Q969P0); experiment: FACS, single antibody dose, IGSF8-D24 (D2-D4 with TM, no D1) expressed on CT26 cells
[2] = target: T1, D1 domain of IGSF8 on CT26 cells (human) (UniProt Q969P0); experiment: FACS on CT26 cells (FIGS. 21 and 22)
T1 sequence (looked up): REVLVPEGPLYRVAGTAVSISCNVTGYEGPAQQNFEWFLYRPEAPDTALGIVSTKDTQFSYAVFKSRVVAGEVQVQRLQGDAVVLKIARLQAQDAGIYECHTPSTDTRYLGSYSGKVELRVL

[3] = target: T1, D1 domain of IGSF8 on CT26 cells (human); experiment: FACS, single antibody dose, CT26 cells expressing IGSF8-D1
[4] = target: T2, cynomolgus monkey IGSF8 expressed on CT26 cells (cynomolgus monkey); experiment: FACS on CT26 cells expressing IGSF8
T2 sequence: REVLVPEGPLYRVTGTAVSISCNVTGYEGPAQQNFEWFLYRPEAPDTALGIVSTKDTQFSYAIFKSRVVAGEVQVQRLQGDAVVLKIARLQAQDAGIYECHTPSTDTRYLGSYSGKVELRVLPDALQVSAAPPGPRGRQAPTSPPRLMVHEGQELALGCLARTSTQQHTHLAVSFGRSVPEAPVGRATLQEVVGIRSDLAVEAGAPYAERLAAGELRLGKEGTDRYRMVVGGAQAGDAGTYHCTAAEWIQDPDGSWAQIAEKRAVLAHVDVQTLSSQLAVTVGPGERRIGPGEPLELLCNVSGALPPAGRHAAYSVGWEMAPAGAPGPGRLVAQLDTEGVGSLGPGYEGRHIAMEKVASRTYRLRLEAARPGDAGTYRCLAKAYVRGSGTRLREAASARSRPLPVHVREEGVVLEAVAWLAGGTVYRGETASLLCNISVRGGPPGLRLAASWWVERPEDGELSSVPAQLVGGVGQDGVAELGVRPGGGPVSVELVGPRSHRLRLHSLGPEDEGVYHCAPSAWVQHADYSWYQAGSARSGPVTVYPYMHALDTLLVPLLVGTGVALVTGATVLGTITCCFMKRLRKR

[5] = target: T2, cynomolgus monkey IGSF8 expressed on CT26 cells (cynomolgus monkey); experiment: FACS on CT26 cells expressing cynomolgus monkey IGSF8, anti-human Fc-PE

binding [1]: binds | binding [2]: binds | binding [3]: binds
B1: Antibody C37 (3F12) (antibody, V domains shown)
VH: EVQLVQSGGGLVKPGGSLRLSCAASGFTFSSYSMNWVRQAPGKGLEWVSSISSSSSYIYYADSVKGRFTISRDNAKNSLYLQMNSLRAEDTAVYYCAGRQYDFWSGWDWFDPWGQGTLVTVSS
VL: DIQLTQSPSSLSASVGDRVTITCRASQSISTYLNWYQQKPGKAPKLLIHDASILQSGVPSRFSGSGSGTDFTLTISSLQAEDFATYYCQQSYSTLPYTFGQGTKVEIK

binding [1]: binds | binding [2]: binds | binding [3]: binds
B2: Antibody C36 (1B4) (antibody, V domains shown)
VH: EVQLLESGGGLVQPGGSLRLSCAASGFTFSSYAMSWVRQAPGKGLEWVSGITGSGGSTYYADSVKGRFTISRDNSKNTLYLQMNSLRAEDTAIYYCARGGALDIWGQGTMVTVSS
VL: DIQMTQSPSSLSASVGDRVTITCRASQVIHNYLAWYKQKPGQAPKLLIYSASSLQSGVPSRFSGSGSGTDFTLTISSLQPEDFATYYCQQSYSTPLTFGGGTKVEIKR

binding [2]: binds | binding [3]: binds
B3: Antibody C30 (B34) (antibody, V domains shown)
VH: B2 VH with I93V, G100R, A101Q, L102V, I104K, M110L
VL: DIMLTQSPSSLSASVGDRVTITCRASQSIHNYLNWIQQTPGKAPKLLVFAASTLQRGVPPRYSGRGSGTEFTLTISSLQPEDFATYYCQQSYTTPLTFGGGTKVEIRR

binding [2]: binds | binding [3]: binds
B4: Antibody C32 (B104) (antibody, IgG1, V domains shown)
VH: QVQLVQSGAEVKRPGASVKVSCKASGYTFTNDIIHWVRQAPGQRLEWMGWINAGYGNTQYSQNFQDRVSITRDTSASTAYMELISLRSEDTAVYYCARGYYRSPTWFDWWGQGTLVTVSS
VL: ETTLTQSPSSLSASVGDRVTITCRASQSISSWLAWYQQKPGKAPKLLIYKASSLESGVPSRFSGSGSGTEFTLTISSLQPDDFATYYCQQYGDYPYTFGQGTKLEIKR

binding [2]: binds | binding [3]: binds
B5: Antibody C38 (2B4) (antibody, V domains shown)
VH: EVQLVESGGGLEQPGGSLRLSCAGSGFTFRDYAMTWVRQAPGKGLEWVSSISGSGGNTYYADSVKGRFTISRDNSKNTLYLQMNSLRAEDTAIYYCARGEYSSGWPSWFDPWGQGTLVTVSS
VL: EIVLTQSPSSLSASVGDRVTISCRASRTVGTFLNWYQQRPGKPPQALILGVSILEGGVSSRFSGAGSGTEFSLTISSLQPEDIGTYYCQQSHDVPRTFGQGTKVDLRR

binding [4]: binds | binding [5]: binds
B6: L2-01 (antibody, V domains shown)
VH: B5 VH
VL: EIVLTQSPSSLSASVGDRVTISCRASRTVGTFLNWYQQRPGKPPQALILGVSILEGGVSSRFSGAGSGTEFSLTISSLQPEDIGTYYCQQSHDVPRTFGQGTKVDLR

binding [5]: binds
B7: L2-10 (antibody, V domains shown)
VH: B5 VH with G24A, N57S
VL: DIQMTQSPSSLSASVGDRVTITCRASRTVGTFLNWYQQKPGKAPKALILHTSILEGGVPSRFSGSGSGTDFTLTISSLQPEDIATYYCQQSHDVPRTFGQGTKVEIK

binding [2]: binds | binding [3]: binds
B8: Antibody C31 (B46) (antibody, V domains shown)
VH: QVQLVESGGGVVQPGRSLRLSCAASGFTFSTYGMHWVRQAPGKGLEWVAVIWDDGSYKYYGDSVKGRFTISRDNSKNTLYLQMNSLRAEDTAVYYCAGGYSYSYMAIWGKGTTVTVSS
VL: DIVLTQSPSSLSASVGDRVTITCRASQGISTFLNWYQQKPGKAPKLLIYAASSLQSGVPSRFSGSGSGTDFTLTIGSLQPEDFASYFCQQTYSTQWTFGQGTKVEIK

binding [2]: binds | binding [3]: binds
B9: Antibody C33 (1C2) (antibody, V domains shown)
VH: QVQLVESGGGVVQPGRSLRLSCAASGFTFSTYGMHWVRQAPGKGLEWVAVIWDDGSYKYYGDSVKGRFTISRDNSKNTLYLQMNSLRAEDTAVYYCARDGSGWGYAFDIWGQGTMVTVSS
VL: DIQLTQSPSSLSASVGDRVTITCQASQDISEYLNWYQHKPGKAPNPLVFDAANLETGVPPRFSATGSGTDFSLTITSLQPEDFATYYCQQYDSFPYTFGQGTRLDIK

binding [4]: binds | binding [5]: binds
B10: L1-01 (antibody, V domains shown)
VH: B9 VH
VL: B9 VL
